We go through 1 sequence from paper PMC4982760, “Small-molecule inhibitors identify the RAD52-ssDNA interaction as critical for recovery from replication stress and for survival of BRCA2 deficient cells” (eLife, 2016).

Sequences of proteins named here, by UniProt entry; tags and fusion partners are left off. A change or cut given only in a name is not applied to a line headed by its entry.
UniProt P43351: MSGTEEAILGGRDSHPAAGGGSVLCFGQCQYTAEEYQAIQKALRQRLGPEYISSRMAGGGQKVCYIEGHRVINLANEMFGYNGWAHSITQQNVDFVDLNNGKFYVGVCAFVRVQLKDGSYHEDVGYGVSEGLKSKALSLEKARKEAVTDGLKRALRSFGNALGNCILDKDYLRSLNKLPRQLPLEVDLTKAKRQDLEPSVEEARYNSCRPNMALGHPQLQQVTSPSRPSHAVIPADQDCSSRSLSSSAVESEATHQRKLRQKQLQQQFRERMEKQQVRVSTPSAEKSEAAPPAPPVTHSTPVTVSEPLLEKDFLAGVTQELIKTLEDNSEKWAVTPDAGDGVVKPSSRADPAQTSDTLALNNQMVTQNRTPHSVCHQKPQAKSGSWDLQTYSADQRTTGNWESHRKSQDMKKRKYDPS

Construct, isoform or probe ends are uncertain for at least one entry.

For the series, the target named is RAD52 (UniProt P43351). In words: FRET. To be noted: 1 nM dsDNA, stoichiometric complex at 10 nM RAD52, dsDNA bent; FRET: 30 mM Tris-acetate pH 7.5, 1 mM DTT, 0.1 mg/mL BSA, 25 C; recombinant protein.

Regarding “CGTTGCGGATGGCTTAGAGCTTAATTGC / GCAATTAAGCTCAAGCCATCCGCAACG [Cy3-Oligo28-Cy5 / Oligo28-REV]”, the binding result was “binds”.
